Reference: PMC9483116, “Deubiquitination of BES1 by UBP12/UBP13 promotes brassinosteroid signaling and plant growth” (Plant Communications, 2022)
Results are given in words; binding and its absence hold for the method and conditions named. For some assays here: Binding seen in cells or lysates may run through a third protein. Some entries that bind do so weakly or less than the wild type. Where a sequence is shown, tags or fusion partners need not be part of it. Values belong to the molecule of their own block, whether it stands above or below them.

Key:
[1] = molecular target: T1, UBP12-HA (Arabidopsis thaliana) (UniProt Q9FPT1); assay: co-IP; extracts of 7-day-old 35S:BES1-myc/UBQ10:UBP12-HA seedlings treated with 50 uM MG132 with or without 1 uM eBL for 6 h; 50 mM Tris-HCl pH 7.4, 100 mM NaCl, 0.2% Triton X-100, 1 mM DTT; IP with anti-HA or anti-myc and protein A-agarose, blot with anti-myc or anti-HA
T1 sequence: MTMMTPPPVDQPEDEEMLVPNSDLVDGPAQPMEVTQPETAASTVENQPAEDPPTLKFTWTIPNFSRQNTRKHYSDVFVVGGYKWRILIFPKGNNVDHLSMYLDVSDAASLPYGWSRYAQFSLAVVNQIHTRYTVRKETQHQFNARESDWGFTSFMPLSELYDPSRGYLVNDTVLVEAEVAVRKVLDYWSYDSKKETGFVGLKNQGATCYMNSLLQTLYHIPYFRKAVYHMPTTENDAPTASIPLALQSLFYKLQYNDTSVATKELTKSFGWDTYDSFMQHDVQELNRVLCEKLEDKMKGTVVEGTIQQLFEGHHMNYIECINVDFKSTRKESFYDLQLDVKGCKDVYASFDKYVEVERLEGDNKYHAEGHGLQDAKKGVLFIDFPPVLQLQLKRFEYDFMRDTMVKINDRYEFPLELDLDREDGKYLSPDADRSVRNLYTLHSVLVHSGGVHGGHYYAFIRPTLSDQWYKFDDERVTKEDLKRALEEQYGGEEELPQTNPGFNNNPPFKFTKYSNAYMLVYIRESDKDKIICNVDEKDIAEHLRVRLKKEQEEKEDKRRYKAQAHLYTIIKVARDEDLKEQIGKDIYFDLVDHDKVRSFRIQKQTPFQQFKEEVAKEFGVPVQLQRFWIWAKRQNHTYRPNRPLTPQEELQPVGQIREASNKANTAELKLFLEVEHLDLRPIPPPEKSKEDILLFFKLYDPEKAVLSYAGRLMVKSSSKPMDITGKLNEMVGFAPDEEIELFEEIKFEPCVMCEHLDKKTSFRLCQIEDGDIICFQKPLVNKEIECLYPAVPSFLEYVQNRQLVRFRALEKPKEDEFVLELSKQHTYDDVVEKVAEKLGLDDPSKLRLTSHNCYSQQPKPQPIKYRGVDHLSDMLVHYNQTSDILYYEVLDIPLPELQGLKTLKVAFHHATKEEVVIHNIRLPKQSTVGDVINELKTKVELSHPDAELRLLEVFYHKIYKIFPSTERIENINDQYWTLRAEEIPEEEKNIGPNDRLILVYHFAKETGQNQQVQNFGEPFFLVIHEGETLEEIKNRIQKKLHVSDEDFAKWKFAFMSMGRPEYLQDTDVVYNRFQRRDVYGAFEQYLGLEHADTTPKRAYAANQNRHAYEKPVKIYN

GST-UBP12 (full-length) [2] = molecular target: T2, GST-UBP12 (full-length) (Arabidopsis thaliana, UniProt Q9FPT1 1-1116); assay: pull-down; semi-in vivo; resin-bound GST or GST-UBP12 incubated at 4°C for 2 h with total protein extracts of 7-day-old 35S:BES1-myc seedlings treated with or without 1 uM eBL for 6 h; 100 mM Tris-HCl pH 7.5, 300 mM NaCl, 2 mM EDTA, 1% Triton X-100, 10% glycerol; anti-myc blot; only the target purified
T2 construct: UBP12 (ubiquitin-specific protease 12), Arabidopsis thaliana, At5g06600; full length (1-1116 by the limits printed for its N and C derivatives); not shown: GST, N-terminal, kept
T2 sequence (looked up): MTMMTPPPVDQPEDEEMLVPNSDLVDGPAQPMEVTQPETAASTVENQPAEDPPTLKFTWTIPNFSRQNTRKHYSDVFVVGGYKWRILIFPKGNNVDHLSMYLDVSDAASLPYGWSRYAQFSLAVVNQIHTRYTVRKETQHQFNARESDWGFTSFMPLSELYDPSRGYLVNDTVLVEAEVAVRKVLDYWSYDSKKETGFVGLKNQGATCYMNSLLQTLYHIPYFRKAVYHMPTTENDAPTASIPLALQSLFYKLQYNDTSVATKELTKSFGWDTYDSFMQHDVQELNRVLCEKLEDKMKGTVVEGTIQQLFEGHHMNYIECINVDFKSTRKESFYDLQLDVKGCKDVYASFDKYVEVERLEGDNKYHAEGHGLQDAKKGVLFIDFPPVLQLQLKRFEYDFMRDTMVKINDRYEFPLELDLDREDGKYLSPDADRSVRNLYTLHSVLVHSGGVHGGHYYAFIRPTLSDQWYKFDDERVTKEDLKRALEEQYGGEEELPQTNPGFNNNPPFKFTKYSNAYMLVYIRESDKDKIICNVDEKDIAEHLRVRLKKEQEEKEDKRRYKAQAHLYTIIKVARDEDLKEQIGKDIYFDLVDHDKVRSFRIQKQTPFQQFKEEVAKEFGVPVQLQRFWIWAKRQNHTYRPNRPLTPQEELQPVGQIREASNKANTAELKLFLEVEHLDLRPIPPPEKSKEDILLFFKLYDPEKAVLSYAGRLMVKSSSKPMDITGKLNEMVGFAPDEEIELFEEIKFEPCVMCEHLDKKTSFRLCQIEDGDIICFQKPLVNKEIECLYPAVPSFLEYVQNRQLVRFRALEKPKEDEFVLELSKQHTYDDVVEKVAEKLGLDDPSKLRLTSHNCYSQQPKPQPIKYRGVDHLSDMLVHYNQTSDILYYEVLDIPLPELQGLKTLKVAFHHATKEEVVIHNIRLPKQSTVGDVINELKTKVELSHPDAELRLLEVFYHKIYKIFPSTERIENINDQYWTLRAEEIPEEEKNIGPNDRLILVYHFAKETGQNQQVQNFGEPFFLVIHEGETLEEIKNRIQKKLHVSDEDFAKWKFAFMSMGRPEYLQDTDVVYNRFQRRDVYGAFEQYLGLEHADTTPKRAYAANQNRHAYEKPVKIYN

[3] = molecular target: BES1-myc (dephosphorylated BES1-myc) (Arabidopsis thaliana) (UniProt Q9LN63); assay: co-IP; extracts of 7-day-old 35S:BES1-myc/UBQ10:UBP12-HA seedlings treated with 50 uM MG132 with or without 1 uM eBL for 6 h; 50 mM Tris-HCl pH 7.4, 100 mM NaCl, 0.2% Triton X-100, 1 mM DTT; IP with anti-HA or anti-myc and protein A-agarose, blot with anti-myc or anti-HA
GST-UBP12 (full-length) [4] = molecular target: T2, GST-UBP12 (full-length); assay: pull-down; in vitro; GST-tagged proteins bound to glutathione resin as bait, MBP-tagged proteins incubated with them; about 2 ug of each protein; immunoblot with anti-myc or anti-MBP; both purified
GST-UBP13 (full-length) = molecular target: T3, GST-UBP13 (full-length) (Arabidopsis thaliana, UniProt Q84WU2 1-1115); assay: as above
T3 construct: UBP13 (ubiquitin-specific protease 13), Arabidopsis thaliana, At3g11910; full length
T3 sequence (looked up): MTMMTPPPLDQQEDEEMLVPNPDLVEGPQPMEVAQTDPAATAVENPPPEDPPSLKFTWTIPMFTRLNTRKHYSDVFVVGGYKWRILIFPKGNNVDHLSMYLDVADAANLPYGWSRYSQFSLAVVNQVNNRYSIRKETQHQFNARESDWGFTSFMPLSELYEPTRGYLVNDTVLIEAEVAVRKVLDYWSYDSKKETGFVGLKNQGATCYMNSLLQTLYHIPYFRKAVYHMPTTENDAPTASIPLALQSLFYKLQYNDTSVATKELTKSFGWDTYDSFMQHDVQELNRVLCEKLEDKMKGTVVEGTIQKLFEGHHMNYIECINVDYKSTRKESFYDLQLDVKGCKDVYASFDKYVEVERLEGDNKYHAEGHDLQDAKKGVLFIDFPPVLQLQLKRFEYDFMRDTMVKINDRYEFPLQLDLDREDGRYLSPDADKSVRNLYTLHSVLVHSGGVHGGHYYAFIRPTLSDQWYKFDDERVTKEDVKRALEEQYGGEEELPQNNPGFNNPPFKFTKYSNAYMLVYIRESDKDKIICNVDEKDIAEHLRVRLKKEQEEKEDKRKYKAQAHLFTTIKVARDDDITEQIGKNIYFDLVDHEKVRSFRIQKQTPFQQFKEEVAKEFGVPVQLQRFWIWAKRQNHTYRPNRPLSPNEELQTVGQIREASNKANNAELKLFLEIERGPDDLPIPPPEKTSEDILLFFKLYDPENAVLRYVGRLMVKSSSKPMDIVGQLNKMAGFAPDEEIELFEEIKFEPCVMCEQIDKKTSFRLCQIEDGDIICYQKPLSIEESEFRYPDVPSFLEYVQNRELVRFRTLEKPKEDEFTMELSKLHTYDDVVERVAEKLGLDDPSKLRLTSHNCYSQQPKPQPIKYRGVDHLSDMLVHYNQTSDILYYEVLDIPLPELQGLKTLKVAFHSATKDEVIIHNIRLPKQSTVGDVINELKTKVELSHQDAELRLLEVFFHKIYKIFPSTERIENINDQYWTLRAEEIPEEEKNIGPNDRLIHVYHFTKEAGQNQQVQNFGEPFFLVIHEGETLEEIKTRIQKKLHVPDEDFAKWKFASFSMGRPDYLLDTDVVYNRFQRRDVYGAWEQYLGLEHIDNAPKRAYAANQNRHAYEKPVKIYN

binding [1]: binds
binding (GST-UBP12 (full-length) [2]): binds
Molecule: pBES1-myc (phosphorylated BES1-myc) (from UniProt Q9LN63 1-335)

binding [3]: binds
B1: UBP12-HA (enzyme, UniProt Q9FPT1 1-1116)
chain: MTMMTPPPVDQPEDEEMLVPNSDLVDGPAQPMEVTQPETAASTVENQPAEDPPTLKFTWTIPNFSRQNTRKHYSDVFVVGGYKWRILIFPKGNNVDHLSMYLDVSDAASLPYGWSRYAQFSLAVVNQIHTRYTVRKETQHQFNARESDWGFTSFMPLSELYDPSRGYLVNDTVLVEAEVAVRKVLDYWSYDSKKETGFVGLKNQGATCYMNSLLQTLYHIPYFRKAVYHMPTTENDAPTASIPLALQSLFYKLQYNDTSVATKELTKSFGWDTYDSFMQHDVQELNRVLCEKLEDKMKGTVVEGTIQQLFEGHHMNYIECINVDFKSTRKESFYDLQLDVKGCKDVYASFDKYVEVERLEGDNKYHAEGHGLQDAKKGVLFIDFPPVLQLQLKRFEYDFMRDTMVKINDRYEFPLELDLDREDGKYLSPDADRSVRNLYTLHSVLVHSGGVHGGHYYAFIRPTLSDQWYKFDDERVTKEDLKRALEEQYGGEEELPQTNPGFNNNPPFKFTKYSNAYMLVYIRESDKDKIICNVDEKDIAEHLRVRLKKEQEEKEDKRRYKAQAHLYTIIKVARDEDLKEQIGKDIYFDLVDHDKVRSFRIQKQTPFQQFKEEVAKEFGVPVQLQRFWIWAKRQNHTYRPNRPLTPQEELQPVGQIREASNKANTAELKLFLEVEHLDLRPIPPPEKSKEDILLFFKLYDPEKAVLSYAGRLMVKSSSKPMDITGKLNEMVGFAPDEEIELFEEIKFEPCVMCEHLDKKTSFRLCQIEDGDIICFQKPLVNKEIECLYPAVPSFLEYVQNRQLVRFRALEKPKEDEFVLELSKQHTYDDVVEKVAEKLGLDDPSKLRLTSHNCYSQQPKPQPIKYRGVDHLSDMLVHYNQTSDILYYEVLDIPLPELQGLKTLKVAFHHATKEEVVIHNIRLPKQSTVGDVINELKTKVELSHPDAELRLLEVFYHKIYKIFPSTERIENINDQYWTLRAEEIPEEEKNIGPNDRLILVYHFAKETGQNQQVQNFGEPFFLVIHEGETLEEIKNRIQKKLHVSDEDFAKWKFAFMSMGRPEYLQDTDVVYNRFQRRDVYGAFEQYLGLEHADTTPKRAYAANQNRHAYEKPVKIYN

binding (GST-UBP12 (full-length) [4]): binds
binding (GST-UBP13 (full-length)): binds
B2: BES1 fragment containing amino acids 99–164 (truncated form of MBP-BES1) (domain or fragment, UniProt Q9LN63 99-164)
chain: GSSSRATPYSSHNQSPLSSTFDSPILSYQVSPSSSSFPSPSRVGDPHNISTIFPFLRNGGIPSSLP
